Experimental data from the supplement of paper PMC10735217.
Counter-ions that a name gives are not always drawn. The list shows a part of the results. Repeats in this data set agree poorly, so a single value says little.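 The human kidney-derived cells carry a stably integrated construct of eight TEAD-binding elements driving luciferase, read by luminescence in a drug-repurposing library screen. A compound counts as a hit when its signal is more than five robust Z scores above the plate mean.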

Test system: HEK293A TEAD-LUC reporter
Test: TEAD-luciferase reporter activity (YAP activation), robust Z score vs plate; higher = stronger YAP/TEAD activation
Settings: 24 h

| Compound | TEAD-luciferase reporter activity (compound concentration: 2 uM) | TEAD-luciferase reporter activity (compound concentration: 200 nM) | TEAD-luciferase reporter activity (compound concentration: 10 uM) |
| --- | --- | --- | --- |
| CN1C(=O)CN=C(c2ccccc2)c2cc(Cl)ccc21 [diazepam emulsion] | inactive: -0.357 |  |  |
| CN1C(=O)CN=C(c2ccccc2)c2cc(Cl)ccc21 |  | inactive: 1.27 | inactive: 1.28 |
| COP(=O)(OC)C(O)C(Cl)(Cl)Cl (stereo unspecified) [metrifonate] | inactive: -0.384 | inactive: -1.03 | inactive: 1.21 |
| C=C(c1ccccc1OCc1cccc(Cl)c1)n1ccnc1 [croconazole] | inactive: 0.796 | inactive: -1.4 | active: 5.53 |
| CSCC[C@@H](C(N)=O)N(C)C(=O)[C@H](Cc1ccccc1)NC(=O)CNC(=O)[C@@H](C)NC(=O)[C@@H](N)Cc1ccc(O)cc1 [metkephamide] | inactive: 1.16 | inactive: -1.45 | inactive: 0.733 |
| C[C@]12CCC3C(CC[C@]4(O)C[C@@H](O)CC[C@]34C=O)[C@@]1(O)CC[C@@H]2C1=CC(=O)OC1 (stereo partly specified) [Strophanthidine] | inactive: 2.13 | inactive: -1.41 | active: 20.8 |
| Cc1cc2c(C(C)C)c(O)c(O)c(C=O)c2c(O)c1-c1c(C)cc2c(C(C)C)c(O)c(O)c(C=O)c2c1O [Gossypol] |  | inactive: 0.527 | inactive: -0.12 |
| Cc1cc2c(C(C)C)c(O)c(O)c(C=O)c2c(O)c1-c1c(C)cc2c(C(C)C)c(O)c(O)c(C=O)c2c1O | inactive: -1.05 |  |  |
| C[C@]12CC[C@H]3[C@@H](CCC4=C(O)C(=O)CC[C@@H]43)[C@@H]1CC[C@@H]2OC(=O)CCC1CCCC1 | inactive: -0.195 | inactive: -0.036 | inactive: 2.42 |
| C=CCc1ccccc1OC/C(CNC(C)C)=N/O | inactive: -0.622 | inactive: 0.0317 | inactive: -0.778 |
| Oc1cc2c(cc1O)[C@H]1c3ccccc3CN[C@@H]1CC2 [Dihydrexidine] | inactive: 1.06 |  |  |
| Oc1cc2c(cc1O)[C@H]1c3ccccc3CN[C@@H]1CC2 |  | inactive: -1.28 | inactive: 1.46 |
| COc1ccc2c3c1O[C@H]1[C@@H](O)C=C[C@H]4[C@@H](C2)NCC[C@@]341 | inactive: -0.541 | inactive: -0.413 | inactive: 0.306 |
| C#CCO[C@H]1CN2CCC1CC2 [Talsaclidine fumarate] | inactive: -0.757 | inactive: 0.374 | inactive: -0.295 |
| CCCC1c2cccc3c2C(Cc2ccc(O)c(O)c2-3)N1CC (stereo unspecified) | inactive: -1.38 | inactive: 1.1 | inactive: -1 |
| CCc1cc2c(ccc3cnn(C[C@H](C)N)c32)o1 | inactive: -0.732 | inactive: 0.745 | inactive: 0.207 |
| Clc1ccc2c(C3=CCNCC3)c[nH]c2c1 | inactive: -1.03 | inactive: 0.561 | inactive: -2.04 |
| CC(=O)[C@]1(O)Cc2c(O)c3c(c(O)c2[C@@H](O[C@H]2C[C@H](N4CC4)[C@H](OS(C)(=O)=O)[C@H](C)O2)C1)C(=O)c1ccccc1C3=O | inactive: -0.975 | inactive: -0.0928 | inactive: -1.19 |
| COC(=O)C(N)CCCN/C(N)=N\[N+](=O)[O-] (stereo unspecified) | inactive: -0.634 | inactive: -1.73 | inactive: 1.19 |
| C#C[C@]1(O)CC[C@H]2[C@@H]3CC[C@H]4Cc5nc6nc7ccccc7n6cc5C[C@]4(C)[C@H]3CC[C@@]21C | inactive: 2 | inactive: 0.997 | inactive: 4.27 |

| Compound | TEAD-luciferase reporter activity (compound concentration: 2 uM) | TEAD-luciferase reporter activity (compound concentration: 200 nM) | TEAD-luciferase reporter activity (compound concentration: 10 uM) |
| --- | --- | --- | --- |
| CC(=O)OC(Cc1ccccc1)(c1ccccc1)C(C)CN1CCCC1 (stereo unspecified) | inactive: -0.455 | inactive: -1.32 | inactive: -1.09 |
| CC(=O)C1CCC2C3CC[C@@H]4C[C@H](O)CC[C@]4(C)C3C(=O)C[C@]12C (stereo partly specified) [alfaxalone, Pharmos] | inactive: 1.33 | inactive: -0.798 | inactive: 2.98 |
| Cc1cccc(-c2ccc3c(c2)c(C(=O)C(=O)O)cn3Cc2ccc(C(C)(C)C)cc2)c1 | inactive: -0.909 | inactive: -0.84 | inactive: -1.37 |
| O=C(O)c1ccc2c(c1)C(SCCN1CCC(Cc3ccccc3)CC1)c1ccccc1CO2 (stereo unspecified) | inactive: 0.266 | inactive: -0.599 | inactive: -0.523 |
| CC(=O)OCCN(CCOC(C)=O)C(=O)[C@@H]1CC2c3cccc4[nH]cc(c34)C[C@H]2N(C)C1 (stereo partly specified) | inactive: 2.25 | inactive: -0.201 | inactive: 0.314 |
| Cc1nnc2ccc(-c3cccc(C(F)(F)F)c3)nn12 | inactive: 0.196 | inactive: -0.288 | inactive: 3.94 |
| CCOC(=O)C1(c2ccccc2)CCN(CCc2ccc(NC(C)=O)cc2)CC1 | inactive: 1.38 | inactive: -0.227 | inactive: 1.29 |
| O=[N+]([O-])c1ccccc1O | inactive: -0.949 | inactive: -0.82 | inactive: 0.0235 |
| c1cncc(C2CCCCN2)c1 (stereo unspecified) [Anabasine hydrochloride] | inactive: -1.28 | inactive: -0.858 | inactive: 1.61 |
| C[N+](C)(C)CCOC(=O)C(O)(c1ccccc1)C1CCCC1 (stereo unspecified) | inactive: -0.0086 | inactive: 0.979 | inactive: -1.53 |
| O=C(C1CCCN1C(=O)C1CCCC1)N1CCC(N2Cc3ccccc3C2=O)CC1 (stereo unspecified) |  | inactive: -0.0809 | inactive: 0.442 |
| Oc1ccc(C2=CCC[C@H](CN3CC=C(c4ccccc4)CC3)C2)cc1 | inactive: -0.649 | inactive: -0.94 | inactive: 0.693 |
| OCCN(CCO)CCO |  |  | inactive: 0.0447 |
| OCCN(CCO)CCO [Triethanolamine] | inactive: 0.502 |  |  |
| CCC(C)(C)C(=O)Nc1cc(CN2CCOCC2)c(C)cn1 [CB2 agonists, Adolor] | inactive: -1.65 | inactive: -1.16 | inactive: 0.146 |
| CCOC(=O)[C@H](CCSC)NC(=O)[C@H](Cc1cccc(N(CCCl)CCCl)c1)NC(=O)[C@@H](N)Cc1ccc(F)cc1 [Ambamustine hydrochloride] | inactive: -0.717 | inactive: -1.46 | inactive: 0.203 |
| Cc1cc2c(cc1F)nc(O)n2C1CCN(C2CCOCC2)CC1 | inactive: -1.08 | inactive: 0.438 | inactive: -2.1 |
| F/C(COc1ccc2c(c1)[nH]c1ccccc12)=C1/CN2CCC1CC2 | inactive: 0.126 | inactive: -1.51 | inactive: 0.964 |
| CCC1(c2ccccc2)C(=O)NC(=O)NC1=O [Barbexaclone] |  | inactive: -1.88 | active: 6.25 |
| CCCCCCCCC(=O)NCc1ccc(O)c(OC)c1 | inactive: 1.53 | inactive: 1.42 | inactive: 2.13 |

Fetched one by one from the list above (three):

| Compound | TEAD-luciferase reporter activity (compound concentration: 2 uM) | TEAD-luciferase reporter activity (compound concentration: 200 nM) | TEAD-luciferase reporter activity (compound concentration: 10 uM) |
| --- | --- | --- | --- |
| C[N+](C)(C)CCOC(=O)C(O)(c1ccccc1)C1CCCC1 (stereo unspecified) | inactive: -0.0086 | inactive: 0.979 | inactive: -1.53 |
| O=[N+]([O-])c1ccccc1O | inactive: -0.949 | inactive: -0.82 | inactive: 0.0235 |
| c1cncc(C2CCCCN2)c1 (stereo unspecified) [Anabasine hydrochloride] | inactive: -1.28 | inactive: -0.858 | inactive: 1.61 |

The results go on:

| Compound | TEAD-luciferase reporter activity (compound concentration: 2 uM) | TEAD-luciferase reporter activity (compound concentration: 200 nM) | TEAD-luciferase reporter activity (compound concentration: 10 uM) |
| --- | --- | --- | --- |
| CC(C)OC(=O)[C@H](C)N[P@](=S)(OC[C@H]1O[C@@H](n2ccc(=O)[nH]c2=O)[C@](C)(O)[C@@H]1O)Oc1ccccc1 | inactive: 0.214 | inactive: -0.311 | inactive: 0.607 |
| CCCCCCCC/C=C\CCCCCCCCOP(O)(O)=S | inactive: 0.00994 | inactive: 0.439 | active: 7.37 |
| CCCCCCCCCCCCC(=O)O[C@H]1CC[C@H]2[C@@H]3CCC4=CC(=O)CCC4(C)[C@H]3CCC12C (stereo partly specified) | inactive: -0.943 | inactive: 0.293 | inactive: 0.505 |
| C[Se]C[C@H](N)C(=O)O [Se-Methylselenocysteine] |  | inactive: -0.424 | inactive: -0.758 |
| OC1=Nc2ccc(Cl)cc2C(c2ccccc2Cl)=NC1 [delorazepam] | inactive: -0.731 | inactive: -0.84 | inactive: 0.483 |
| COc1cc(CCN)cc(OC)c1OC | inactive: 0.024 | inactive: -1.56 | inactive: 2.73 |
| C[C@@H]([C@H](O)c1ccccc1)N(C)C | inactive: -1.1 | inactive: -0.112 | inactive: -0.0864 |
| c1ccc(-c2ccc(OC3CN4CCC3CC4)nn2)cc1 (stereo unspecified) | active: 5.81 | inactive: -0.476 | inactive: 1.71 |
| C=C(C)[C@H]1CCC(C)=C[C@@H]1c1c(O)cc(CCC)cc1O [Cannabidivarin] | inactive: -0.707 | inactive: -0.198 | inactive: -0.598 |
| N=C(N)NN [Pimagedine] | inactive: 0.0226 | inactive: 1.01 | inactive: 0.443 |
| O=C(C1CCCN1C(=O)c1ccccc1)N1CCC(N2CCOCC2=O)CC1 (stereo unspecified) |  | inactive: 1.06 | inactive: 0.575 |
| CN(C)[C@@H]1C(=O)C(C(N)=O)C(=O)[C@@]2(O)C(=O)C3C(=O)c4c(O)cccc4[C@@](C)(O)[C@H]3[C@H](O)[C@@H]12 (stereo partly specified) |  | inactive: -1.17 | inactive: 0.5 |
| CN(C)[C@@H]1C(=O)C(C(N)=O)C(=O)[C@@]2(O)C(=O)C3C(=O)c4c(O)cccc4[C@@](C)(O)[C@H]3[C@H](O)[C@@H]12 (stereo partly specified) [Oxytetracycline] | inactive: -1.38 |  |  |
| Clc1cccc(N2CCNCC2)c1 | inactive: -1.28 | inactive: -1.97 | inactive: -0.276 |
| C=CCONC1=Nc2ccc(Cl)cc2C(c2ccccc2Cl)=NC1 | inactive: -0.95 | inactive: -2.04 | inactive: -1.6 |
| O=[N+]([O-])O[C@H]1CO[C@H]2[C@@H]1OC[C@H]2O[N+](=O)[O-] [Isosorbide dinitrate] | inactive: 1.15 |  |  |
| O=[N+]([O-])O[C@H]1CO[C@H]2[C@@H]1OC[C@H]2O[N+](=O)[O-] [Isosorbide Dinitrate] |  | inactive: -1.58 | inactive: 0.537 |
| CCC[C@@H]1CC(=O)N([C@@H](CC)C(N)=O)C1 [brivaracetam] | inactive: 1.49 | inactive: 0.872 | inactive: 0.0815 |
